Sequences of proteins named here, by UniProt entry; tags and fusion partners are left off.
UniProt Q0JBA9, entry or part of it: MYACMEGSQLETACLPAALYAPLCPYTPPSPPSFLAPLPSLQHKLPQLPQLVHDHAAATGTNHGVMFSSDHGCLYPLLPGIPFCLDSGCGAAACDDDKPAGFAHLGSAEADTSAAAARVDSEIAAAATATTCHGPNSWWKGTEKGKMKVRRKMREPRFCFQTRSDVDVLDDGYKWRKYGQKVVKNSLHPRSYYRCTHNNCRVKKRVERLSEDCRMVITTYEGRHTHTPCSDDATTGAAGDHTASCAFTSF

The other results are listed elsewhere or left out.
These sequences were tested against OsWRKY34 (Oryza sativa, UniProt Q0JBA9 1-250) (assay: protein-binding microarray (RPBM); PBS, 2% BSA, 51.3 ng/ul salmon testes DNA, 50 uM zinc acetate, 200 nM TF, 25 C, 1 h; high values mean tight binding). Settings: protein: recombinant; tags: N-terminal polyhistidine and DsRed monomer fusion (pET32a); label: CyDye5-dUTP incorporated in the synthesized complementary strand; 3' TTTTT single-stranded linker to array surface; dsDNA, one strand shown.
In short: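 Per-feature fluorescence intensity (arbitrary units), read on an Axon 4000B scanner, is the binding signal. Transcription factors carrying an N-terminal polyhistidine tag and DsRed fusion were expressed in E. coli BL21-CodonPlus and purified on Ni–NTA. A custom Agilent array, made double-stranded by primer extension with Cy5-dUTP and blocked with 2% BSA, was incubated with 200 nM protein in PBS, 2% BSA, salmon testes DNA and 50 µM zinc acetate at 25 °C for 1 h and then washed.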
“GTGGTATCTTTTTCAGCGTTGGTTTTTAAGTCGTTAAAAACGGAGTCACCTAGTGCAG” was tested, and the binding signal was 8940 fluorescence intensity (a.u.).
For “CCAGTTTCTTGGCCGCTCTCTGCCACTGCGCTTGCGCCACCGGAGTCACCTAGTGCAG”, the binding signal was 8330 fluorescence intensity (a.u.).
For “CGTCACCGCCGGCGCCATGCCCGCCATCGTATCCTCCCCGCGGAGTCACCTAGTGCAG”, the binding signal was 9680 fluorescence intensity (a.u.).
“TTTACTACACACCATCGAGGTCGTCTTCTCCATCAACCTCCGGAGTCACCTAGTGCAG” was tested, and the binding signal was 9470 fluorescence intensity (a.u.).
“ATTCCAATCCATTCCTCCGCGACCTCGTCGTCCGATCATGCGGAGTCACCTAGTGCAG” was tested, and the binding signal was 8670 fluorescence intensity (a.u.).
In the case of “GTCCCATATCACCGACACCGCCTTATTTAATTTTTTTTATCGGAGTCACCTAGTGCAG”, the binding signal is reported as 10500 fluorescence intensity (a.u.).
For “GCTGATGCAGCTGTTGCTTGTTGACTTAGTGACTTAATTTCGGAGTCACCTAGTGCAG”, the binding signal was 8710 fluorescence intensity (a.u.).
In the case of “CTCCTCCTCGCCGCCAAACCCGTCCGCCCGAAGCCACCGCCGGAGTCACCTAGTGCAG”, the binding signal is reported as 10900 fluorescence intensity (a.u.).
“TCTCTGGTGGCTCCCTGGCGCTCCTCTTCACTCCATCCTCCGGAGTCACCTAGTGCAG” was tested, and the binding signal was 9090 fluorescence intensity (a.u.).
With “AGGGAGTTGGTTTTGTTAGCAGAGAAGAAGTTGTAAATTGCGGAGTCACCTAGTGCAG” the binding signal was 8180 fluorescence intensity (a.u.).
“AGCGACGTATCTCCCACCAATTCTTTTTTCTTAAGTAGTACGGAGTCACCTAGTGCAG” was tested, and the binding signal was 8560 fluorescence intensity (a.u.).
For “CCCAACGACCAAATGCATGACCCGTTCTAATTCAGTTTCTCGGAGTCACCTAGTGCAG”, the binding signal was 8550 fluorescence intensity (a.u.).
In the case of “ATTTTTTTTCTACCACATTCTGTCAGTGAGCTGGTTTACACGGAGTCACCTAGTGCAG”, the binding signal is reported as 11100 fluorescence intensity (a.u.).
With “AGGGTTTAGAGAGGTGTTGATTACTAGGGTTTAGAGAGGGCGGAGTCACCTAGTGCAG” the binding signal was 8630 fluorescence intensity (a.u.).
“GTGGGCCCCGCCCGTGTGATCGTGTCTCTGTTTCGTTTTCCGGAGTCACCTAGTGCAG” was tested, and the binding signal was 12100 fluorescence intensity (a.u.).
“CCGCCTCCGCCGACCCCGATCCCCATCCATCCCGCCAGCGCGGAGTCACCTAGTGCAG” was tested, and the binding signal was 9340 fluorescence intensity (a.u.).
For “ACATGGCTGAACCTGCACTACTACTGTTAACAGTGTTATTCGGAGTCACCTAGTGCAG”, the binding signal was 10300 fluorescence intensity (a.u.).
For “ATTGGATGTTAAGTTGTGTTTTTGCTGTTTCATGGTTTTACGGAGTCACCTAGTGCAG”, the binding signal was 11400 fluorescence intensity (a.u.).
For “TCGAGCGCGCTCATTTCCCTTTTCCTTTTTCGTTTTTTCGCGGAGTCACCTAGTGCAG”, the binding signal was 10500 fluorescence intensity (a.u.).
“TGAACACACGCACGCAAACCCTACCTCCATGAGTATCTTCCGGAGTCACCTAGTGCAG” was tested, and the binding signal was 10500 fluorescence intensity (a.u.).
With “CCCGCCGCTGCCACCACACGCGCCCGCCGACCCGATGCCGCGGAGTCACCTAGTGCAG” the binding signal was 8990 fluorescence intensity (a.u.).
“CCCCATTCACTTCCACAGACAAGTAGCATCACCTTTCAGTCGGAGTCACCTAGTGCAG” was tested, and the binding signal was 8710 fluorescence intensity (a.u.).
“ACTACATGCAGACCTACTCCATCGTCCTCGGCCGCCACAGCGGAGTCACCTAGTGCAG” was tested, and the binding signal was 9580 fluorescence intensity (a.u.).
In the case of “TACTATGAAATATTTCATCTGGTCTCAGGTTGTCACTTTTCGGAGTCACCTAGTGCAG”, the binding signal is reported as 9880 fluorescence intensity (a.u.).
In the case of “AATTTGTCCATTCCCTATGTCATCTCCTATAGAAACTCTACGGAGTCACCTAGTGCAG”, the binding signal is reported as 11300 fluorescence intensity (a.u.).
With “TGTGTGTGTGCCGTACTGTTGAAGTCTGGCCGTTTCGCTGCGGAGTCACCTAGTGCAG” the binding signal was 9210 fluorescence intensity (a.u.).
“CTCGTTCTTTTCCGGTTCCTTCTTTTCCCCGACGCAGCGGCGGAGTCACCTAGTGCAG” was tested, and the binding signal was 8480 fluorescence intensity (a.u.).
For “AAAAAGTCAACGGCGTTATACATTAAAATACGGAGGGAGTCGGAGTCACCTAGTGCAG”, the binding signal was 8640 fluorescence intensity (a.u.).
With “CTTCATCTCCAGCCTCTCTCTCTGCTTTGCTTGCTTATATCGGAGTCACCTAGTGCAG” the binding signal was 9080 fluorescence intensity (a.u.).
For “CAACCCCTGTACCGTGCGCACCGTCTTGTATGTAGCGCACCGGAGTCACCTAGTGCAG”, the binding signal was 9210 fluorescence intensity (a.u.).
For “GGCAATACCGTTTTCCATGTTCGCAGCCTGCGTTCGGTGCCGGAGTCACCTAGTGCAG”, the binding signal was 9160 fluorescence intensity (a.u.).
For “GCCATGTAGGCGTCACGTCAGCTAAAACCGTCGTCCAAACCGGAGTCACCTAGTGCAG”, the binding signal was 9270 fluorescence intensity (a.u.).
With “CTGTCTTAAGTTGTTTAGTAGCTTCGATTCTGCCTTTAAACGGAGTCACCTAGTGCAG” the binding signal was 8340 fluorescence intensity (a.u.).
With “GTGTCGCCTCGATCCCCTTCGAAACGGCTGAGCCCAAAGCCGGAGTCACCTAGTGCAG” the binding signal was 8290 fluorescence intensity (a.u.).
For “TGATTGGTTGGCTGGTTGGTTAGTTGGCGCTTTTATCGTGCGGAGTCACCTAGTGCAG”, the binding signal was 15200 fluorescence intensity (a.u.).
With “ATTTTTCTGTCTGACCGAACGTCCACCCCTAGCCACTGTTCGGAGTCACCTAGTGCAG” the binding signal was 10500 fluorescence intensity (a.u.).
With “CCCCGGAAGGGGCGGGGAGGGGAGGGCGGCAGCGGCGCCGCGGAGTCACCTAGTGCAG” the binding signal was 18500 fluorescence intensity (a.u.).
With “AATGCGATCCGACGCGCGCCACCACCACCTCCTCCTCCGACGGAGTCACCTAGTGCAG” the binding signal was 8070 fluorescence intensity (a.u.).
In the case of “TGCCGATTGATCTTTTATCCTTTGGGGCATATGCTCGAGTCGGAGTCACCTAGTGCAG”, the binding signal is reported as 8360 fluorescence intensity (a.u.).
With “CCTCATTTCCTTGTTGCAGTCAGTCTTGGCCCTCAAATCACGGAGTCACCTAGTGCAG” the binding signal was 12800 fluorescence intensity (a.u.).
With “TGATACCGTTGACTTTTCACATAACTTGGTCGTTCGTTTTCGGAGTCACCTAGTGCAG” the binding signal was 34100 fluorescence intensity (a.u.).
With “ACCCGCCCACCGGCCTGGCCACACACCGCCGCCACGCTGGCGGAGTCACCTAGTGCAG” the binding signal was 9290 fluorescence intensity (a.u.).

Source: PMC7819943, “Rice protein-binding microarrays: a tool to detect cis-acting elements near promoter regions in rice”
